No constants are given. Whether binding was seen depends on the method and setting. Binding seen in cells or lysates may run through a third protein. Here binding means that the protein was enriched with, or labelled near, the bait; the list need not be complete.
Target: Flag-MAVS (human) (UniProt Q7Z434)
Experiment: affinity purification with mass spectrometry; Flag-MAVS pulled down on M2 beads from HEK293T-Flag-MAVS stable cells lacking endogenous MAVS; SDS-PAGE, silver staining, mass spectrometry

Protein sequences, listed by entry. Tags and fused reporters are not part of them.
UniProt Q7Z434: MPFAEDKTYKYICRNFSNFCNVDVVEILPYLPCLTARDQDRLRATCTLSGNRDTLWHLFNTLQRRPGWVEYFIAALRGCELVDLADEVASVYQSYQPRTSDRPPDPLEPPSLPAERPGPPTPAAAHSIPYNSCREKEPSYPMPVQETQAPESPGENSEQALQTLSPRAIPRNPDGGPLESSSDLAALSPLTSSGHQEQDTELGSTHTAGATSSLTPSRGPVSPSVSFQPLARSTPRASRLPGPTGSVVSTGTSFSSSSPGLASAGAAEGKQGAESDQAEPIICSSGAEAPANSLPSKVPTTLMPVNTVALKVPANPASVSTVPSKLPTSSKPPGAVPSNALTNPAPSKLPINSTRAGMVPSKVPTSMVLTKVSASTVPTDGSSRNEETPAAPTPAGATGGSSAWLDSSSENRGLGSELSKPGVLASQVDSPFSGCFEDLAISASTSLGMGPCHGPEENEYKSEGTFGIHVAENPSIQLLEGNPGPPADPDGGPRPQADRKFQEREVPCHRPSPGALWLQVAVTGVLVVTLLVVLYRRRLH
UniProt O14744: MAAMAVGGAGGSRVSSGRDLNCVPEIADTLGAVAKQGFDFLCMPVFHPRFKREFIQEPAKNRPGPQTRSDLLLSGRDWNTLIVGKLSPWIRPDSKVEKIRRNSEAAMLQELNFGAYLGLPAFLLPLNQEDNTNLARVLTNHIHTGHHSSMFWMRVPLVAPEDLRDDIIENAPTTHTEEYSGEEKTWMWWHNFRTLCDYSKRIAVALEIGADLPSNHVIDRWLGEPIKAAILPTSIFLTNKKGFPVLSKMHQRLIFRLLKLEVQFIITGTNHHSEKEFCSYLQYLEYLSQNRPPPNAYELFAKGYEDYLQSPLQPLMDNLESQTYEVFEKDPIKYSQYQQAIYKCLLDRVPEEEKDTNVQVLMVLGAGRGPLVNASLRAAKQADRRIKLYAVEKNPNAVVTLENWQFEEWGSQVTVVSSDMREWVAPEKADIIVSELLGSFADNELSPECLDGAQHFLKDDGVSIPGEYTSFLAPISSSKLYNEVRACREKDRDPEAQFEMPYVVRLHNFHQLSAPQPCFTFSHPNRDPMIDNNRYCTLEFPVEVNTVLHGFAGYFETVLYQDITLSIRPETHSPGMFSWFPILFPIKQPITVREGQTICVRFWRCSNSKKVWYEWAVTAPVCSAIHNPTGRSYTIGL

## endogenous PRMT5 (from UniProt O14744 1-637)
  binding: binds
